Experimental data: article PMC4357705, “Human Rap1 modulates TRF2 attraction to telomeric DNA”
Construct, isoform or probe ends are uncertain for at least one entry. A weaker result is weaker than the reference pair of the same experiment.

Tested on: TRF2ΔB + Rap1
Test: fluorescence anisotropy
Details: Rap1 releases more DNA than from full-length TRF2; 3'-C6 aminoalkyl linker on one strand; FA: 50 mM NaCl, 50 mM sodium phosphate pH 7.0, 25 °C, 7.5 nM DNA; recombinant protein; protein details: N-terminal His6; label: Alexa Fluor 488 at 3' end of one strand

GTTAGGGTTAGGGTTAG (double strand) [R2]
binding result: binds more weakly
